About 7,500 (2.1%) of roughly 360,000 compounds were called active. This list was built around the results that the source calls inconclusive (neither active nor inactive); the mix of calls is not that of the screen. Calls come from the whole dose curve; as a rule, active = well fitted inhibition curve with a large enough effect; inconclusive = small, poorly fitted or top-dose-only effect, or effect the other way; inactive = flat fitted curve, though single readings scatter. Potencies of inconclusive entries are doubtful fits and often do not repeat.
Assay: Nrf2 qHTS screen for inhibitors; note: nearly all actives have a fitted effect of over 60% in size
Details: A549 ARE-Fluc reporter, luciferase luminescence, 18-24 h; series mostly up to 46 µM
Procedure, shortened: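 Concentration-response testing used A549 ARE_Fluc cells at 5000 cells/well. Following an 18-24 h compound incubation, viability was read by fluorescence (Ex 405/Em 525) and luciferase output by luminescence.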
Potency is the fitted concentration of half-maximal effect.

Structure (SMILES)	Potency
COc1cccc(C(=O)O/N=C(\N)c2ccc(C)cc2)c1	inconclusive: 9.2 µM [activator, partial curve]
CCc1ccc(O)c(CNCCNCc2cc(CC)ccc2O)c1	inactive
O=C(Nc1ccc(F)cc1)Nc1nnc(-c2ccco2)s1	inconclusive: 29.1 µM [activator, single point]
Cc1ccccc1-c1nsc(SCC(=O)Nc2ccc3c(c2)OCO3)n1	inconclusive: 6.51 µM [activator, single point]
CCC(=O)Nc1nnc(SCC(=O)Nc2ccc3c(c2)OCCO3)s1	inconclusive: 29.1 µM [falling, single point]
COc1ccc(CNC(=O)C2CCN(Cc3nc(-c4ccc(Cl)cc4)oc3C)CC2)cc1	inconclusive: 14.6 µM [activator, partial curve, poor fit]
Nc1ccc(-c2nc3ccccc3[nH]2)cc1	inconclusive: 1.16 µM [activator, full curve]
C/C=C(\C)C(=O)OC1c2c(ccc3ccc(=O)oc23)OC(C)(C)C1OC(C)=O (stereo not given)	inconclusive: 0.092 µM [falling, full curve, poor fit]
CSc1ccc(CCNC(=O)CCc2c(C)nc3c(c(C)nn3-c3ccccc3)c2C)cc1	inactive
CCOC(=O)c1ccc(N=NN(C)C)cc1	inconclusive: 9.2 µM [activator, partial curve]
N#Cc1cc2cc3c(cc2nc1SCC(=O)N1CCOCC1)OCO3	inconclusive: 14.6 µM [activator, partial curve]
Cc1ccc2c(CN3CCN(S(=O)(=O)c4ccccc4C(F)(F)F)CC3)cc(=O)oc2c1	inconclusive: 16.4 µM [falling, partial curve]
O=C(CSc1ccc(-c2ccccn2)nn1)NCc1ccc(Cl)cc1	inconclusive: 32.6 µM [falling, single point]
O=C(Nc1ccccc1)c1nnsc1S(=O)(=O)c1ccc(Cl)cc1	inconclusive: 32.6 µM [falling, single point]
Cc1ccc(S(=O)(=O)N2CCN(C(=O)c3cc4c(C)nn(-c5ccccc5C)c4s3)CC2)cc1	inconclusive: 29.1 µM [falling, single point]
CCOc1ccc(S(=O)(=O)Nc2cc(SCC(=O)O)c(O)c3ccccc23)cc1	inconclusive: 29.1 µM [falling, single point]
CS(=O)(=O)N1CCc2nc(-c3ccccc3)sc2C1	inconclusive: 8.2 µM [activator, partial curve]
COc1ccc(NC(=O)c2ccc3c(c2)N(C)CCS3)cc1	inconclusive: 10.3 µM [activator, partial curve, poor fit]
COc1ccc(N(C(=O)C2CCCCC2)S(=O)(=O)c2cccc3cccnc23)cc1	inconclusive: 20.6 µM [falling, partial curve, poor fit]
Cc1cc(C)c(S(=O)(=O)N2CCN(C(=O)c3ccc4c(c3)OCO4)CC2)c(C)c1	inconclusive: 2.91 µM [falling, full curve, poor fit]

Some of the entries above, set out differently.

| Structure (SMILES) | Potency |
| --- | --- |
| CCC(=O)Nc1nnc(SCC(=O)Nc2ccc3c(c2)OCCO3)s1 | inconclusive: 29.1 µM [falling, single point] |
| COc1ccc(N(C(=O)C2CCCCC2)S(=O)(=O)c2cccc3cccnc23)cc1 | inconclusive: 20.6 µM [falling, partial curve, poor fit] |

The list goes on.

Structure (SMILES)	Potency
O=C(Nc1ccc(N2CCN(C(=O)c3ccccc3)CC2)c(Cl)c1)c1cccnc1	inconclusive: 25.9 µM [falling, single point]
O=C(Nc1c(Cl)cccc1Cl)c1cc(-c2ccc3c(c2)OCO3)on1	inconclusive: 1.3 µM [activator, full curve, poor fit]
O=C(NCC1COc2ccccc2O1)c1ccc(Cl)c(S(=O)(=O)N2CCCC2)c1 (stereo not given)	inconclusive: 25.9 µM [falling, single point]
COC(=O)c1ccc(-n2nnnc2SCC(=O)N2CCCCC2)cc1	inconclusive: 29.1 µM [activator, single point]
CCc1ccc(NC(=O)C(=O)NNC(=O)c2cccs2)cc1	inconclusive: 14.6 µM [activator, partial curve, poor fit]
COc1ccc(OCc2cccc(C(=O)NN)c2)cc1	inconclusive: 0.164 µM [activator, full curve, poor fit]
COc1ccc(OCC(O)CN(CC(O)COc2ccc(OC)cc2)c2cccc(O)c2)cc1 (stereo not given)	inactive
COc1ccc(OC)c(NC(=O)c2noc3c2CCCC3)c1	inconclusive: 13 µM [activator, partial curve, poor fit]
O=c1cc(C(F)(F)F)nc(-c2ccccc2OC(F)(F)F)[nH]1	inconclusive: 0.58 µM [falling, partial curve, poor fit]
Cc1ccccc1N/N=C/c1sc(=O)n(Cc2cccc(C(=O)O)c2)c1Cl	inactive
O=C(Nc1cccc2ccccc12)c1ccc([N+](=O)[O-])cc1	inactive
COc1ccc(/C=C2\CCC(C3CCCC3)C2=O)cc1Cn1nc(C)cc1C (stereo not given)	inconclusive: 2.59 µM [activator, full curve, poor fit]
CCOC(=O)C1=C(O)CSC1=Nc1ccc(Cl)cc1	inconclusive: 0.517 µM [falling, full curve, poor fit]
CSc1c(C#N)c(N)nc2sc(C(=O)c3ccc(Cl)c(Cl)c3)c(N)c12	inconclusive: 0.411 µM [falling, partial curve, poor fit]
O=C(COc1ccc(Cl)cc1Cl)NNC(=S)Nc1ccc(F)cc1	inconclusive: 23.1 µM [falling, single point]
CCC(NC(=O)Cc1c(C)c2cc3c(cc2oc1=O)OC(C)(C)CC3)C(=O)O (stereo not given)	inconclusive: 14.6 µM [activator, partial curve, poor fit]
CCc1nc2sc(C#N)c(N)c2c2c1CCCC2	inactive
COc1ccc(-c2cc3nc(C)cc(C)n3n2)cc1	inconclusive: 1.3 µM [activator, full curve]
COc1ccc(C2=NOC(Cn3nc(C(=O)NCc4ccc(OC(F)(F)F)cc4)cc3-c3ccccc3)C2)cc1 (stereo not given)	inconclusive: 29.1 µM [falling, single point]
Cc1ccc(C(=O)O)cc1-c1ccc(/C=C2/NC(=O)N(c3ccccc3)C2=O)o1	inconclusive: 6.51 µM [falling, partial curve, poor fit]

Source: PubChem BioAssay AID504444 (National Center for Advancing Translational Sciences (NCATS), 2011)
